The list does not hold the whole screen: it gathers tests that were run many times, whatever their T/C, doses with no T/C, and many T/C values between a quarter and a half above the control. Further doses and runs are listed elsewhere. T/C: endpoint of the treated group in % of that of the vehicle group. Some doses have a count of surviving animals in place of a T/C: the source files T/C as zero there, which appears to mark a toxic dose or a test without result, not a measured value. Some doses without a T/C left all or most animals alive at the check, yet need not have been tolerated: survival well below the control is almost never listed, so the zero probably covers shortened survival too. Survivors were counted at the toxicity check, usually on the fifth day, unless a day is given; later deaths do not show. Schedules are NCI's codes, taken here to give the interval after Q, in days (D) or hours (H), and the number of doses after X. Some structures stand for samples that the source files as different forms (salt, stereo form or complex); doses refer to the form tested. Some schedules carry Z or #; the key to these is not given. For survival time, the PubChem record calls one and a half times the control and up active, and a quarter to a half above the control has no call in these data; cut-offs in other NCI protocols can differ. Some T/C values are followed by the survivors on the day toxicity was checked, most often the fifth; where none is given, no animal had died by that day.

The test system of this experiment is L1210 leukemia ip in BDF1 mice, survival T/C. As to the kind of experiment: NCI In Vivo Anticancer Drug Screen. Data for tumor model L1210 Leukemia (intraperitoneal) in B6D2F1 (BDF1) mice. The note with it: T/C endpoint: mean survival time, higher T/C = longer survival.
The mark [1] stands for this setting: dose: 400.0 mg/kg/injection, schedule: Q01DX009 (ip), vehicle: Klucel (hydroxypropylcellulose) (HPC).
Where [2] appears, read: dose: 100.0 mg/kg/injection, schedule: Q01DX009 (ip), vehicle: saline.
Where [3] appears, read: dose: 400.0 mg/kg/injection, schedule: Q01DX009 (ip), vehicle: saline with Tween-80.
Setting [4] is: dose: 200.0 mg/kg/injection, schedule: Q01DX001 (ip), vehicle: saline.

`CC[n+]1cccc2cc(NC(=O)c3ccc(NC(=O)c4ccc(C(=O)Nc5ccc6c(ccc[n+]6CC)c5)cc4)cc3)ccc21`: the survivor count is, setting by setting: (dose: 8.9 mg/kg/injection, schedule: Q01DX Z (ip), vehicle: carboxymethylcellulose (CMC)) 0 of 6; (dose: 13.3 mg/kg/injection, schedule: Q01DX Z (ip), vehicle: carboxymethylcellulose (CMC)) 0 of 6; (dose: 20.0 mg/kg/injection, schedule: Q01DX Z (ip), vehicle: carboxymethylcellulose (CMC)) 0 of 6; (dose: 30.0 mg/kg/injection, schedule: Q01DX Z (ip), vehicle: carboxymethylcellulose (CMC)) 0 of 6; (dose: 60.0 mg/kg/injection, schedule: Q01DX Z (ip), vehicle: carboxymethylcellulose (CMC)) 1 of 6; (dose: 90.0 mg/kg/injection, schedule: Q01DX Z (ip), vehicle: carboxymethylcellulose (CMC)) 2 of 6. Besides, the survivor count (dose: 150.0 mg/kg/injection, schedule: Q01DX Z (ip), vehicle: carboxymethylcellulose (CMC)) was 1 of 6.
In the case of `CCCCCCCCN(C)N=Nc1ccc(C(N)=O)cc1`, the T/C by setting is: (dose: 266.0 mg/kg/injection, schedule: Q01DX009 (ip), vehicle: Klucel (hydroxypropylcellulose) (HPC)) 135 % of control; under setting [1], 130 % of control.
Take `CCN=C(c1ccc(NC(=O)c2ccc(C(=O)Nc3ccc(C(=NCC)N(CC)C(=O)CC(C)C)cc3)cc2)cc1)N(CC)C(=O)CC(C)C`: for the setting “dose: 400.0 mg/kg/injection, schedule: Q01DX015 (ip), vehicle: methylcellulose (MC)”, the survivor count is 6 of 6.
`COC(=O)C(C)[P+](c1ccccc1)(c1ccccc1)c1ccccc1` (stereo not given): where the note is “dose: 2.5 mg/kg/injection, schedule: Q01DX009 (ip), vehicle: saline”, the T/C was 126 % of control. The survivor count by setting is: (dose: 10.0 mg/kg/injection, schedule: Q01DX001 (ip), vehicle: saline) 1 of 6; (dose: 15.0 mg/kg/injection, schedule: Q01DX001 (ip), vehicle: saline) 1 of 6; (dose: 30.0 mg/kg/injection, schedule: Q01DX001 (ip), vehicle: saline) 0 of 6; (dose: 60.0 mg/kg/injection, schedule: Q01DX001 (ip), vehicle: saline) 0 of 6.
For the compound `c1ccc2c(c1)CC1CCCCN1C2` (stereo not given), the survivor count is 3 of 6 (dose: 75.0 mg/kg/injection, schedule: Q01DX009 (ip), vehicle: Klucel (hydroxypropylcellulose) (HPC)); 0 of 6 under setting [2]; 5 of 6 (dose: 115.0 mg/kg/injection, schedule: Q01DX009 (ip), vehicle: Klucel (hydroxypropylcellulose) (HPC)); 0 of 6 (dose: 170.0 mg/kg/injection, schedule: Q01DX009 (ip), vehicle: Klucel (hydroxypropylcellulose) (HPC)); 1 of 6 (dose: 200.0 mg/kg/injection, schedule: Q04DX003 (ip), vehicle: saline); 0 of 6 (dose: 400.0 mg/kg/injection, schedule: Q04DX003 (ip), vehicle: saline).
As for `Cc1ccc(S(=O)(=O)OCC2CO2)cc1` (stereo not given), under “dose: 200.0 mg/kg/injection, schedule: Q01DX009 (ip), vehicle: acetone”, the survivor count is 6 of 6.
Regarding `O=C(CCCl)OCC#CCOC(=O)CCCl`, the survivor count under setting [3] is given as 4 of 6.
Consider `CCCCCCCCCCCCCCCCOS(=O)(=O)O`, for which the survivor count (dose: 300.0 mg/kg/injection, schedule: Q01DX001 (ip), vehicle: saline) is on record as 2 of 6.
On to `Cc1cc2nc3c(=O)[nH]c(=O)nc-3n(CCN(CCCl)CCCl)c2cc1C`, for which the T/C is 133 % of control (dose: 100.0 mg/kg/injection, schedule: Q01DX001 (ip), vehicle: carboxymethylcellulose (CMC)); 143 % of control (dose: 176.0 mg/kg/injection, schedule: Q01DX001 (ip), vehicle: carboxymethylcellulose (CMC)); 138 % of control (dose: 200.0 mg/kg/injection, schedule: Q01DX001 (ip), vehicle: carboxymethylcellulose (CMC)); 138 % of control [5 of 6 alive] (dose: 268.0 mg/kg/injection, schedule: Q01DX001 (ip), vehicle: carboxymethylcellulose (CMC)); 147 % of control (dose: 400.0 mg/kg/injection, schedule: Q01DX001 (ip), vehicle: carboxymethylcellulose (CMC)). Further, the survivor count (dose: 200.0 mg/kg/injection, schedule: Q01DX015 (ip), vehicle: carboxymethylcellulose (CMC)) was 5 of 6.
As to `CCOC(=O)[CH2][Sn]([Br])([Br])[CH2]C(=O)OCC`, where the note is “dose: 400.0 mg/kg/injection, schedule: Q04DX002 (ip), vehicle: saline with Tween-80”, the survivor count is 2 of 3.
`N/N=C1/CCc2ccccc21`: the survivor count (dose: 400.0 mg/kg/injection, schedule: Q01DX001 (ip), vehicle: Klucel (hydroxypropylcellulose) (HPC)) is listed as 0 of 6.
As to `CCC1COC(=O)N1` (stereo not given), the survivor count was 1 of 6 under setting [2] and 0 of 6 under setting [4].
With `c1ccc2c(c1)C1C3CCC(C3)C21` (stereo not given), for the setting “dose: 200.0 mg/kg/injection, schedule: Q04DX003 (ip), vehicle: saline with Tween-80”, the T/C is 137 % of control.
For `O=C(Nc1ccc(Nc2ccccc2)cc1)Nc1cccc(F)c1`, the survivor count under setting [3] was 6 of 6.
Regarding `CC1(C)OC2OC(COS(C)(=O)=O)C(O)C2O1` (stereo not given), the survivor count (dose: 200.0 mg/kg/injection, schedule: Q01DX009 (ip), vehicle: Klucel (hydroxypropylcellulose) (HPC)) is 6 of 6 and the survivor count under setting [1] was 6 of 6.
As for `O=c1c2ccccc2oc2ccccc12`, the survivor count (dose: 400.0 mg/kg/injection, schedule: Q04DX003 (ip), vehicle: saline with Tween-80) is reported as 4 of 6.
As for `Cc1c2cccc(Sc3ccccc3)c2c2c3c(cccc13)[S+](c1ccccc1)C2` (stereo not given), the survivor count was 0 of 6 (dose: 25.0 mg/kg/injection, schedule: Q01DX001 (ip), vehicle: saline with Tween-80); 1 of 6 (dose: 25.0 mg/kg/injection, schedule: Q01DX009 (ip), vehicle: saline); 2 of 6 (dose: 50.0 mg/kg/injection, schedule: Q01DX009 (ip), vehicle: saline); 3 of 6 (dose: 100.0 mg/kg/injection, schedule: Q01DX001 (ip), vehicle: saline); 0 of 6 under setting [4]; 2 of 6 (dose: 400.0 mg/kg/injection, schedule: Q01DX001 (ip), vehicle: saline).
For the compound `O=C(Nc1ccc2c(c1)OCO2)N1CC1`, the survivor count by setting is: (dose: 40.0 mg/kg/injection, schedule: Q01DX009 (ip), vehicle: Klucel (hydroxypropylcellulose) (HPC)) 0 of 6; (dose: 80.0 mg/kg/injection, schedule: Q04DX003 (ip), vehicle: Klucel (hydroxypropylcellulose) (HPC)) 1 of 6; (dose: 100.0 mg/kg/injection, schedule: Q04DX003 (ip), vehicle: Klucel (hydroxypropylcellulose) (HPC)) 4 of 6; (dose: 200.0 mg/kg/injection, schedule: Q04DX003 (ip), vehicle: Klucel (hydroxypropylcellulose) (HPC)) 0 of 6; (dose: 400.0 mg/kg/injection, schedule: Q04DX003 (ip), vehicle: Klucel (hydroxypropylcellulose) (HPC)) 0 of 6.

(Values after PubChem BioAssay AID248 (DTP/NCI, 2004).)
